Record: PubChem BioAssay AID1259308 (NCATS, 2017)
The whole screen tested about 59,000 reagents; below is a part drawn at random. Over the whole deposit, about 1,510 (2.6%) were called active. 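Calls use total luciferase alone and ignore viability, so some active siRNAs may act by altering cell number.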 Entries without a mark were called inactive. The numbers tell different reagents against one gene apart.

- Test: 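Genes whose loss raises luciferase production in HEK293 cells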 (primary screen)
- System: human HEK293 embryonic kidney cells stably expressing firefly luciferase (HEK-CMV-Luc2-Hygro)
- Reagent: single siRNA against human genes, 0.8 pmol siRNA per well
- Duration: 72 h
- Measurement: 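Reporter luminescence and viable-cell signal on separate replicate plates, given as percent of non-targeting control and median/MAD z-scores, plus per-cell luciferase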
- Direction: total luciferase, z-score and total luciferase, % of control: higher = more reporter protein produced; luciferase per cell, z-score: higher = more reporter output per viable cell; viable cells, % of control: higher = more viable cells
- Hit rule: 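An siRNA counts as active if its total luciferase robust z-score exceeds 3; genes with two or more such siRNAs out of three were retested with fresh siRNAs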
- Calls: active = raised luciferase; inactive = no rise

gene	reagent no.	total luciferase, z-score	total luciferase, % of control	luciferase per cell, z-score	viable cells, % of control
NTAQ1	1	0.681	95.4	0.756	87.4
NTAQ1	2	0.115	84.2	0.13	90.9
NTAQ1	3	-0.0776	80.3	0.187	85.5
AMOT	1	-1.42	53.6	-0.174	62.8
AMOT	2	1.12	104	0.724	96.1
AMOT	3	3.68 (active)	155	2.95	79.8
DCTN4	1	-0.529	71.4	-0.752	97.2
DCTN4	2	-0.347	75	-0.701	101
DCTN4	3	0.354	88.9	0.186	94.6
BTG2-DT	1	1.98	121	1.83	83.7
BTG2-DT	2	1.24	107	0.915	93.6
BTG2-DT	3	0.00757	82	-0.257	98.1
PANK2	1	0.276	87.4	1.19	71.4
PANK2	2	-0.46	72.7	-0.732	98.6
PANK2	3	1.04	103	0.538	99.4
TTC9B	1	-0.392	74.1	-1.08	110
TTC9B	2	0.569	93.2	0.373	94.4
TTC9B	3	1.64	114	2.07	74.2
CHMP3	1	1.31	108	0.52	105
CHMP3	2	-0.551	70.9	-0.592	92.6
CHMP3	3	-0.719	67.6	-0.516	86.5
CRABP1	1	-0.404	73.9	-0.625	97.3
CRABP1	2	2.26	127	1.91	85.6
CRABP1	3	-0.36	74.7	-0.613	98.1
SAV1	1	-0.427	73.4	-0.696	98.5
SAV1	2	-0.469	72.6	-0.0151	81.4
SAV1	3	1.24	107	1.72	75.7
PIK3R2	1	-0.164	78.6	-0.032	88.6
PIK3R2	2	-0.612	69.7	-0.445	87.6
PIK3R2	3	-0.313	75.7	-0.958	109
CRNDE	1	0.878	99.3	2.03	65
CRNDE	2	-0.396	74	-0.426	92.5
CRNDE	3	0.0407	82.7	-0.207	97.6
CRNDE	4	-0.0139	81.6	-0.444	102
CRNDE	5	-1.06	60.9	-0.709	82
CRNDE	6	2.43	130	2.19	81.7

Copied from the entries so far for reference:
gene	reagent no.	total luciferase, z-score	total luciferase, % of control	luciferase per cell, z-score	viable cells, % of control
PANK2	2	-0.46	72.7	-0.732	98.6
PANK2	3	1.04	103	0.538	99.4
TTC9B	1	-0.392	74.1	-1.08	110
TTC9B	2	0.569	93.2	0.373	94.4
TTC9B	3	1.64	114	2.07	74.2
CHMP3	1	1.31	108	0.52	105

The list goes on.
gene	reagent no.	total luciferase, z-score	total luciferase, % of control	luciferase per cell, z-score	viable cells, % of control
FOXI1	1	-1.05	60.9	1.01	52.1
FOXI1	2	-0.11	79.7	0.592	76.2
FOXI1	3	0.116	84.2	0.717	77.9
LINC02694	1	0.726	96.3	1.47	73.1
LINC02694	2	-1.08	60.4	0.0181	67.1
LINC02694	3	1.47	111	0.737	102
PGBD3	1	-0.0935	80	0.0513	88.2
PGBD3	2	-0.722	67.5	-0.483	85.7
PGBD3	3	-0.208	77.8	-0.897	110
CAPZA3	1	-0.653	68.9	-1	100
CAPZA3	2	1.58	113	1.31	89.9
CAPZA3	3	-0.81	65.8	-0.467	83.1
ABCC9	1	2.42	130	2.63	72.6
ABCC9	2	0.32	88.3	-0.0179	99.1
ABCC9	3	-0.595	70.1	-0.485	88.9
TRE17 (retired record)	1	-0.332	75.3	0.417	75.4
TRE17 (retired record)	2	-0.438	73.2	0.352	74.5
TRE17 (retired record)	3	1.05	103	0.918	90.3
TRIO	1	-0.453	72.9	-0.48	92.4
TRIO	2	-1.14	59.2	-0.195	69.7
TRIO	3	0.469	91.2	-0.0228	103
ITM2A	1	-2.08	40.5	-0.0168	45.4
ITM2A	2	-1.62	49.7	-0.76	67.8
ITM2A	3	-0.46	72.7	0.0585	80
RBPMS2	1	-1.5	52.1	-1.16	78.9
RBPMS2	2	-0.697	68	-0.68	90.9
RBPMS2	3	0.24	86.7	1.14	71.7
GATAD1	1	-0.512	71.7	0.147	77.1
GATAD1	2	0.921	100	0.818	90.3
GATAD1	3	-1	62	-1.48	102
CBLIF	1	0.335	88.5	0.937	77.3
CBLIF	2	0.0584	83	1.48	62.8
CBLIF	3	-0.039	81.1	-0.291	97.9
PIK3AP1	1	0.48	91.4	2.44	53.7
PIK3AP1	2	0.216	86.2	1.12	71.8
PIK3AP1	3	0.192	85.7	-0.21	101
ETAA1	1	-0.304	75.8	-0.614	99.6
ETAA1	2	1.74	117	1.22	94.4
ETAA1	3	0.669	95.2	0.728	87.8
